Cleaved PARP after 72 h of treatment

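The test systems are human melanoma cell lines, treated with a pair of drugs for 72 h and then stained and imaged. The read-out is the fraction of cleaved-PARP-positive nuclei, in % of that fraction in the DMSO control; 200 means twice the control level of this apoptosis marker. Every drug was used at one fixed concentration, the higher of two screened. No replicate spread is given; individual values may be noisy. The marker varies much from line to line, for technical or biological reasons.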 An unselected part of the screen is shown.

Compounds and concentrations:
LFM-A13, 10 µM: C/C(O)=C(\C#N)C(=O)Nc1cc(Br)ccc1Br
vorinostat, 0.4 µM: O=C(CCCCCCC(=O)Nc1ccccc1)NO
crizotinib, 1 µM: C[C@@H](Oc1cc(-c2cnn(C3CCNCC3)c2)cnc1N)c1c(Cl)ccc(F)c1Cl
AZD7762, 0.1 µM: NC(=O)Nc1cc(-c2cccc(F)c2)sc1C(=O)N[C@H]1CCCNC1
GW441756, 2 µM: Cn1cc(/C=C2\C(=O)Nc3cccnc32)c2ccccc21
enzastaurin, 4 µM: Cn1cc(C2=C(c3cn(C4CCN(Cc5ccccn5)CC4)c4ccccc34)C(=O)NC2=O)c2ccccc21
embelin, 6 µM: CCCCCCCCCCCC1=C(O)C(=O)C=C(O)C1=O
PD173074, 0.5 µM: CCN(CC)CCCCNc1ncc2cc(-c3cc(OC)cc(OC)c3)c(NC(=O)NC(C)(C)C)nc2n1
NVP-BEZ235, 0.02 µM: Cn1c(=O)n(-c2ccc(C(C)(C)C#N)cc2)c2c3cc(-c4cnc5ccccc5c4)ccc3ncc21
OSU-03012, 5 µM: NCC(=O)Nc1ccc(-n2nc(C(F)(F)F)cc2-c2ccc3c(ccc4ccccc43)c2)cc1

| Drugs | SK-MEL-2 | SK-MEL-5 | A101D | MEL-HO | UACC-257 | A2058 |
|---|---|---|---|---|---|---|
| LFM-A13 and GW441756 | 25.0 | 197 | 39.4 | 44.7 | 48.1 | 125 |
| NVP-BEZ235 and PD173074 | 50.9 | 126 | 48.7 | 216 | 61.6 | 146 |
| enzastaurin and crizotinib | 606 | 163 | 170 | 50.4 | 184 | 331 |
| enzastaurin and NVP-BEZ235 | 288 | 244 | 115 | 44.1 | 129 | 107 |
| crizotinib and GW441756 | 70.4 | 108 | 79.4 | 142 | 21.3 | 112 |
| NVP-BEZ235 and GW441756 | 24.4 | 63.3 | 159 | 94.1 | 32.1 | 55.6 |
| embelin and NVP-BEZ235 | 151 | 113 | 540 | 51.8 | 101 | 125 |
| PD173074 and AZD7762 | 150 | 196 | 184 | 141 | 22.2 | 345 |
| GW441756 and embelin | 13.5 | 67.8 | 50.1 | 65.1 | 20.3 | 64.7 |
| OSU-03012 and enzastaurin | 781 | 101 | 115 | 97.8 | 112 | 171 |
| NVP-BEZ235 and crizotinib | 55.2 | 392 | 122 | 202 | 26.8 | 250 |
| AZD7762 and NVP-BEZ235 | 470 | 204 | 156 | 243 | 141 | 470 |
| embelin and OSU-03012 | 778 | 485 | 60.7 | 109 | 40.4 | 154 |
| enzastaurin and GW441756 | 412 | 106 | 288 | 57.0 | 20.7 | 235 |
| crizotinib and embelin | 103 | 24.5 | 24.5 | 166 | 50.8 | 101 |
| vorinostat and LFM-A13 | 102 | 146 | 33.8 | 93.0 | 180 | 141 |
| OSU-03012 and PD173074 | 545 | 131 | 86.4 | 69.8 | 95.7 | 75.8 |
| LFM-A13 and PD173074 | 107 | 42.5 | 77.5 | 164 | 20.8 | 134 |
| enzastaurin and AZD7762 | 357 | 212 | 324 | 51.9 | 44.6 | 429 |
| OSU-03012 and AZD7762 | 1950 | 1060 | 139 | 116 | 136 | 277 |
| GW441756 and vorinostat | 27.2 | 184 | 138 | 180 | 27.2 | 124 |
| enzastaurin and LFM-A13 | 200 | 73.9 | 296 | 235 | 86.1 | 206 |
| enzastaurin and vorinostat | 225 | 182 | 55.7 | 73.8 | 169 | 146 |
| crizotinib and vorinostat | 151 | 143 | 76.3 | 150 | 184 | 135 |
| embelin and LFM-A13 | 116 | 62.5 | 88.2 | 53.1 | 53.8 | 103 |
| embelin and PD173074 | 71.7 | 37.1 | 83.2 | 28.0 | 45.6 | 71.6 |
| NVP-BEZ235 and LFM-A13 | 340 | 68.2 | 349 | 181 | 33.6 | 118 |
| OSU-03012 and LFM-A13 | 596 | 304 | 37.7 | 124 | 26.1 | 51.7 |
| vorinostat and NVP-BEZ235 | 308 | 170 | 50.0 | 94.7 | 359 | 22.5 |
| GW441756 and PD173074 | 30.2 | 232 | 88.2 | 25.5 | 32.6 | 91.5 |
| AZD7762 and embelin | 118 | 157 | 259 | 46.4 | 19.6 | 205 |
| OSU-03012 and GW441756 | 184 | 289 | 44.6 | 259 | 65.9 | 130 |
| LFM-A13 and crizotinib | 106 | 188 | 67.1 | 149 | 32.4 | 139 |
| crizotinib and AZD7762 | 128 | 277 | 94.2 | 83.3 | 179 | 150 |
| crizotinib and PD173074 | 150 | 62.6 | 38.3 | 111 | 97.4 | 111 |
| enzastaurin and PD173074 | 262 | 163 | 169 | 240 | 76.8 | 248 |
| OSU-03012 and NVP-BEZ235 | 206 | 322 | 145 | 383 | 182 | 182 |
| enzastaurin and embelin | 767 | 125 | 87.9 | 68.6 | 33.7 | 108 |
| AZD7762 and LFM-A13 | 104 | 109 | 130 | 83.2 | 32.6 | 192 |
| vorinostat and OSU-03012 | 620 | 575 | 154 | 54.5 | 109 | 80.0 |

The first 4 entries again:

| Drugs | SK-MEL-2 | SK-MEL-5 | A101D | MEL-HO | UACC-257 | A2058 |
|---|---|---|---|---|---|---|
| LFM-A13 and GW441756 | 25.0 | 197 | 39.4 | 44.7 | 48.1 | 125 |
| NVP-BEZ235 and PD173074 | 50.9 | 126 | 48.7 | 216 | 61.6 | 146 |
| enzastaurin and crizotinib | 606 | 163 | 170 | 50.4 | 184 | 331 |
| enzastaurin and NVP-BEZ235 | 288 | 244 | 115 | 44.1 | 129 | 107 |

From a melanoma drug combination screen (doi:10.1371/journal.pone.0140310); values rounded.